The target of this assay is T1, EGFP-C9ORF72 fusion protein (human (endogenous in hiPSC-MG)) (UniProt Q96LT7).
T1 sequence: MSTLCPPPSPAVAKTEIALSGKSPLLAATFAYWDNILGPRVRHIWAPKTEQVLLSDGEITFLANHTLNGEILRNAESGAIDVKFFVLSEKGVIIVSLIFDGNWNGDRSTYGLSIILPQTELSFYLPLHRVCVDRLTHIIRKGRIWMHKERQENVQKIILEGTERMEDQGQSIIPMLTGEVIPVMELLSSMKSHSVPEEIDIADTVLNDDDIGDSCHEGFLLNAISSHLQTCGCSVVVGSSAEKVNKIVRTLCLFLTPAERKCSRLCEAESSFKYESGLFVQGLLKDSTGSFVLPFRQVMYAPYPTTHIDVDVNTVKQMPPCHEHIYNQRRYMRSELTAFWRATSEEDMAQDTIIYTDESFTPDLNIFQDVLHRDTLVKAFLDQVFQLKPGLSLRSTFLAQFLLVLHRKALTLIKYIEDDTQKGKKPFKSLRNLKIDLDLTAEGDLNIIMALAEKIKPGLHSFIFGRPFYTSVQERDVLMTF
The assay can be described thus: affinity purification with mass spectrometry; GFP-Trap beads (Chromotek) on 350 ug lysate of EGFP-C9ORF72 hiPSC-MG against ctrl-MG, 4°C, 90 min; lysis buffer 20 mM Hepes pH 7.5, 150 mM NaCl, 5 mM MgCl2, 10% glycerol, 0.5% NP-40, 100 nM GTPgS; on-bead tryptic digestion, 8-plex TMT, LC-MS/MS; >2.0-fold enrichment, 1% FDR.

By UniProt entry, the sequences of proteins in these tests, tags left out. Where a name states a change or a piece, a line headed by the entry shows the natural chain unless it says otherwise.
UniProt P14780: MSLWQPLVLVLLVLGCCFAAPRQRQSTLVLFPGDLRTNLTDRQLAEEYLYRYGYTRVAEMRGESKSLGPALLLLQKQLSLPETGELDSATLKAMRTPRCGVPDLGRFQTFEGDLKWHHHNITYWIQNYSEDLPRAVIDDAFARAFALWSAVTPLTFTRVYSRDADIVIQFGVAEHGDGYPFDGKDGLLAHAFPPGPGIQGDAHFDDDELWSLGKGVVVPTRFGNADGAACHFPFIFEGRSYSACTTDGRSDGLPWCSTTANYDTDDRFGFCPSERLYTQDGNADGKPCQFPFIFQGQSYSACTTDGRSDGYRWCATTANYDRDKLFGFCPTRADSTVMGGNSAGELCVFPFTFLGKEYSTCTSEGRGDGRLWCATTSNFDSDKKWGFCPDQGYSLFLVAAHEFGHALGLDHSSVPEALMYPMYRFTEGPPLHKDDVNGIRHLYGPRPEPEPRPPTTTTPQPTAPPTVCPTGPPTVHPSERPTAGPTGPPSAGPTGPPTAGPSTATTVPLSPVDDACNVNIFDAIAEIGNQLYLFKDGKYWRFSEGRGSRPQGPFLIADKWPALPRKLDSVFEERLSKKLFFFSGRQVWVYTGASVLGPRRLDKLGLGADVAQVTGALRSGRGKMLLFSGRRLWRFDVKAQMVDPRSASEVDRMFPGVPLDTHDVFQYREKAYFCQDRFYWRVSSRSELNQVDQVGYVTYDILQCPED
UniProt P61006: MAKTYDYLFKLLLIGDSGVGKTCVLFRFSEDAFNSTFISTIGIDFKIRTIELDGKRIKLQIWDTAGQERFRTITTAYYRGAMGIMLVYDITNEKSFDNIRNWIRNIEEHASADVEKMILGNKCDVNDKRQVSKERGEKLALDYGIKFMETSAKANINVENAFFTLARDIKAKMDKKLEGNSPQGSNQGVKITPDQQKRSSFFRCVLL
UniProt P61026: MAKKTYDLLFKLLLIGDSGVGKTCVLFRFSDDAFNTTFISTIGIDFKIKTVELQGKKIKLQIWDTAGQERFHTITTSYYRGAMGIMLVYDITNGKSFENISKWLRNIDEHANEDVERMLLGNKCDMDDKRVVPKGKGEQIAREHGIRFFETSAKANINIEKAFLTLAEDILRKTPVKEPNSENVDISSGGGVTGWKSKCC
UniProt Q9UL25: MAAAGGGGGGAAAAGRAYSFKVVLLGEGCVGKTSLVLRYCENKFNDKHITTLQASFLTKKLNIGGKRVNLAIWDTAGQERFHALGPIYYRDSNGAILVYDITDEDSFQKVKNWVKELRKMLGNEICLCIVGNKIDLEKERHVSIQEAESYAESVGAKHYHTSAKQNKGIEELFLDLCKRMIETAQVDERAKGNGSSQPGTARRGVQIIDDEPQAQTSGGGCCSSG
UniProt P61960: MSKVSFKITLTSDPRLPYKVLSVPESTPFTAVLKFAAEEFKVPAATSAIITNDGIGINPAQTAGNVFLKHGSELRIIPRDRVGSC

These are yes or no findings as the source states them, for the method shown. Binding seen in cells or lysates may run through a third protein. A yes stands for co-enrichment or nearness to the bait. Other partners may have been found. Where a sequence is shown, tags or fusion partners need not be part of it.

With MMP9 (from UniProt P14780), the binding entry was “binds”.
Next, RAB5 (human (endogenous in hiPSC-MG)): “binds”; RAB8A (from UniProt P61006 1-207): “binds”.
With RAB10 (from UniProt P61026 1-200) the entry was “binds”; with RAB21 (from UniProt Q9UL25 1-225), “binds”.
As to “RAB39Ab (human (endogenous in hiPSC-MG))”, the binding result is “binds”.
With “UFM 1 (ubiquitin fold modifier 1) (from UniProt P61960 1-85)” the entry was “binds”.

B1: RAB 34 (protein, UniProt Q9BZG1 1-259)
chain: MNILAPVRRDRVLAELPQCLRKEAALHGHKDFHPRVTCACQEHRTGTVGFKISKVIVVGDLSVGKTCLINRFCKDTFDKNYKATIGVDFEMERFEVLGIPFSLQLWDTAGQERFKCIASTYYRGAQAIIIVFNLNDVASLEHTKQWLADALKENDPSSVLLFLVGSKKDLSTPAQYALMEKDALQVAQEMKAEYWAVSSLTGENVREFFFRVAALTFEANVLAELEKSGARRIGDVVRINSDDSNLYLTASKKKPTCCP
Turning to B1, the binding result is on record as “binds”.

B2: RAB13 (protein, UniProt P51153 1-203)
chain: MAKAYDHLFKLLLIGDSGVGKTCLIIRFAEDNFNNTYISTIGIDFKIRTVDIEGKKIKLQVWDTAGQERFKTITTAYYRGAMGIILVYDITDEKSFENIQNWMKSIKENASAGVERLLLGNKCDMEAKRKVQKEQADKLAREHGIRFFETSAKSSMNVDEAFSSLARDILLKSGGRRSGNGNKPPSTDLKTCDKKNTNKCSLG
On to B2, for which the binding result is recorded as “binds”.
